Results on one substance are retold here after publication PMC12154468.

For this test, the target named is Large yellow croaker dimerization partner DP1 (PcDP1), GAL4 BD fusion (large yellow croaker (Pseudosciaena crocea)) (UniProt D2CFQ6). Nature of the test: two-hybrid; Matchmaker Two-Hybrid System; GAL4 BD-DP1 (pGBKT7) as bait, GAL4 AD-E2F1-6 (pGADT7) as preys; S. cerevisiae AH109, mating at 30 °C for 24 h; growth on SD/–Ade/–His/–Leu/–Trp plates without or with X-gal.

These are yes or no findings as the source states them, for the method shown. A result given as binding can be weak or reduced; the word gives no strength.

For “Large yellow croaker E2F4 (PcE2F4), GAL4 AD fusion (from UniProt A0A5Q0MTN8)”, the binding result is listed as “binds”.
